These are yes or no findings as the source states them, for the method shown. In cells and extracts the contact can be indirect. Here binding means that the protein was enriched with, or labelled near, the bait; the list need not be complete. Sequences can lack the tags named with a protein.
B1: Phospholipid-transporting ATPase VB (protein, UniProt O94823 1-1461)
chain: MALSVDSSWHRWQWRVRDGFPHCPSETTPLLSPEKGRQSYNLTQQRVVFPNNSIFHQDWEEVSRRYPGNRTCTTKYTLFTFLPRNLFEQFHRWANLYFLFLVILNWMPSMEVFHREITMLPLAIVLFVIMIKDGMEDFKRHRFDKAINCSNIRIYERKEQTYVQKCWKDVRVGDFIQMKCNEIVPADILLLFSSDPNGICHLETASLDGETNLKQRCVVKGFSQQEVQFEPELFHNTIVCEKPNNHLNKFKGYMEHPDQTRTGFGCESLLLRGCTIRNTEMAVGIVIYAGHETKAMLNNSGPRYKRSKIERRMNIDIFFCIGILILMCLIGAVGHSIWNGTFEEHPPFDVPDANGSFLPSALGGFYMFLTMIILLQVLIPISLYVSIELVKLGQVFFLSNDLDLYDEETDLSIQCRALNIAEDLGQIQYIFSDKTGTLTENKMVFRRCTIMGSEYSHQENAKRLETPKELDSDGEEWTQYQCLSFSARWAQDPATMRSQKGAQPLRRSQSARVPIQGHYRQRSMGHRESSQPPVAFSSSIEKDVTPDKNLLTKVRDAALWLETLSDSRPAKASLSTTSSIADFFLALTICNSVMVSTTTEPRQRVTIKPSSKALGTSLEKIQQLFQKLKLLSLSQSFSSTAPSDTDLGESLGANVATTDSDERDDASVCSGGDSTDDGGYRSSMWDQGDILESGSGTSLEEALEAPATDLARPEFCYEAESPDEAALVHAAHAYSFTLVSRTPEQVTVRLPQGTCLTFSLLCTLGFDSVRKRMSVVVRHPLTGEIVVYTKGADSVIMDLLEDPACVPDINMEKKLRKIRARTQKHLDLYARDGLRTLCIAKKVVSEEDFRRWASFRREAEASLDNRDELLMETAQHLENQLTLLGATGIEDRLQEGVPDTIATLREAGIQLWVLTGDKQETAVNIAHSCRLLNQTDTVYTINTENQETCESILNCALEELKQFRELQKPDRKLFGFRLPSKTPSITSEAVVPEAGLVIDGKTLNAIFQGKLEKKFLELTQYCRSVLCCRSTPLQKSMIVKLVRDKLRVMTLSIGDGANDVSMIQAADIGIGISGQEGMQAVMSSDFAITRFKHLKKLLLVHGHWCYSRLARMVVYYLYKNVCYVNLLFWYQFFCGFSSSTMIDYWQMIFFNLFFTSLPPLVFGVLDKDISAETLLALPELYKSGQNSECYNLSTFWISMVDAFYQSLICFFIPYLAYKGSDIDVFTFGTPINTISLTTILLHQAMEMKTWTIFHGVVLLGSFLMYFLVSLLYNATCVICNSPTNPYWVMEGQLSNPTFYLVCFLTPVVALLPRYFFLSLQGTCGKSLISKAQKIDKLPPDKRNLEIQSWRSRQRPAPVPEVARPTHHPVSSITGQDFSASTPKSSNPPKRKHVEESVLHEQRCGTECMRDDSCSGDSSAQLSSGEHLLGPNRIMAYSRGQTDMCRCSKRSSHRRSQSSLTI
B2: Complement C1r subcomponent (protein, UniProt P00736 18-705)
chain: SIPIPQKLFGEVTSPLFPKPYPNNFETTTVITVPTGYRVKLVFQQFDLEPSEGCFYDYVKISADKKSLGRFCGQLGSPLGNPPGKKEFMSQGNKMLLTFHTDFSNEENGTIMFYKGFLAYYQAVDLDECASRSKSGEEDPQPQCQHLCHNYVGGYFCSCRPGYELQEDTHSCQAECSSELYTEASGYISSLEYPRSYPPDLRCNYSIRVERGLTLHLKFLEPFDIDDHQQVHCPYDQLQIYANGKNIGEFCGKQRPPDLDTSSNAVDLLFFTDESGDSRGWKLRYTTEIIKCPQPKTLDEFTIIQNLQPQYQFRDYFIATCKQGYQLIEGNQVLHSFTAVCQDDGTWHRAMPRCKIKDCGQPRNLPNGDFRYTTTMGVNTYKARIQYYCHEPYYKMQTRAGSRESEQGVYTCTAQGIWKNEQKGEKIPRCLPVCGKPVNPVEQRQRIIGGQKAKMGNFPWQVFTNIHGRGGGALLGDRWILTAAHTLYPKEHEAQSNASLDVFLGHTNVEELMKLGNHPIRRVSVHPDYRQDESYNFEGDIALLELENSVTLGPNLLPICLPDNDTFYDLGLMGYVSGFGVMEEKIAHDLRFVRLPVANPQACENWLRGKNRMDVFSQNMFCAGHPSLKQDACQGDSGGVFAVRDPNTDRWVATGIVSWGIGCSRGYGFYTKVLNYVDWIKKEMEEED
B3: AF4/FMR2 family member 1 (protein, UniProt P51825 1-1210)
chain: MAAQSSLYNDDRNLLRIREKERRNQEAHQEKEAFPEKIPLFGEPYKTAKGDELSSRIQNMLGNYEEVKEFLSTKSHTHRLDASENRLGKPKYPLIPDKGSSIPSSSFHTSVHHQSIHTPASGPLSVGNISHNPKMAQPRTEPMPSLHAKSCGPPDSQHLTQDRLGQEGFGSSHHKKGDRRADGDHCASVTDSAPERELSPLISLPSPVPPLSPIHSNQQTLPRTQGSSKVHGSSNNSKGYCPAKSPKDLAVKVHDKETPQDSLVAPAQPPSQTFPPPSLPSKSVAMQQKPTAYVRPMDGQDQAPSESPELKPLPEDYRQQTFEKTDLKVPAKAKLTKLKMPSQSVEQTYSNEVHCVEEILKEMTHSWPPPLTAIHTPSTAEPSKFPFPTKDSQHVSSVTQNQKQYDTSSKTHSNSQQGTSSMLEDDLQLSDSEDSDSEQTPEKPPSSSAPPSAPQSLPEPVASAHSSSAESESTSDSDSSSDSESESSSSDSEENEPLETPAPEPEPPTTNKWQLDNWLTKVSQPAAPPEGPRSTEPPRRHPESKGSSDSATSQEHSESKDPPPKSSSKAPRAPPEAPHPGKRSCQKSPAQQEPPQRQTVGTKQPKKPVKASARAGSRTSLQGEREPGLLPYGSRDQTSKDKPKVKTKGRPRAAASNEPKPAVPPSSEKKKHKSSLPAPSKALSGPEPAKDNVEDRTPEHFALVPLTESQGPPHSGSGSRTSGCRQAVVVQEDSRKDRLPLPLRDTKLLSPLRDTPPPQSLMVKITLDLLSRIPQPPGKGSRQRKAEDKQPPAGKKHSSEKRSSDSSSKLAKKRKGEAERDCDNKKIRLEKEIKSQSSSSSSSHKESSKTKPSRPSSQSSKKEMLPPPPVSSSSQKPAKPALKRSRREADTCGQDPPKSASSTKSNHKDSSIPKQRRVEGKGSRSSSEHKGSSGDTANPFPVPSLPNGNSKPGKPQVKFDKQQADLHMREAKKMKQKAELMTDRVGKAFKYLEAVLSFIECGIATESESQSSKSAYSVYSETVDLIKFIMSLKSFSDATAPTQEKIFAVLCMRCQSILNMAMFRCKKDIAIKYSRTLNKHFESSSKVAQAPSPCIASTGTPSPLSPMPSPASSVGSQSSAGSVGSSGVAATISTPVTIQNMTSSYVTITSHVLTAFDLWEQAEALTRKNKEFFARLSTNVCTLALNSSLVDLVHYTRQGFQQLQELTKTP
B4: Coiled-coil domain-containing protein 25 (protein, UniProt Q86WR0 1-208)
chain: MVFYFTSSSVNSSAYTIYMGKDKYENEDLIKHGWPEDIWFHVDKLSSAHVYLRLHKGENIEDIPKEVLMDCAHLVKANSIQGCKMNNVNVVYTPWSNLKKTADMDVGQIGFHRQKDVKIVTVEKKVNEILNRLEKTKVERFPDLAAEKECRDREERNEKKAQIQEMKKREKEEMKKKREMDELRSYSSLMKVENMSSNQDGNDSDEFM
B5: Desmocollin-1 (protein, UniProt Q08554 135-894)
chain: RWAPIPASLMENSLGPFPQHVQQIQSDAAQNYTIFYSISGPGVDKEPFNLFYIEKDTGDIFCTRSIDREKYEQFALYGYATTADGYAPEYPLPLIIKIEDDNDNAPYFEHRVTIFTVPENCRSGTSVGKVTATDLDEPDTLHTRLKYKILQQIPDHPKHFSIHPDTGVITTTTPFLDREKCDTYQLIMEVRDMGGQPFGLFNTGTITISLEDENDNPPSFTETSYVTEVEENRIDVEILRMKVQDQDLPNTPHSKAVYKILQGNENGNFIISTDPNTNEGVLCVVKPLNYEVNRQVILQVGVINEAQFSKAASSQTPTMCTTTVTVKIIDSDEGPECHPPVKVIQSQDGFPAGQELLGYKALDPEISSGEGLRYQKLGDEDNWFEINQHTGDLRTLKVLDRESKFVKNNQYNISVVAVDAVGRSCTGTLVVHLDDYNDHAPQIDKEVTICQNNEDFAVLKPVDPDGPENGPPFQFFLDNSASKNWNIEEKDGKTAILRQRQNLDYNYYSVPIQIKDRHGLVATHMLTVRVCDCSTPSECRMKDKSTRDVRPNVILGRWAILAMVLGSVLLLCILFTCFCVTAKRTVKKCFPEDIAQQNLIVSNTEGPGEEVTEANIRLPMQTSNICDTSMSVGTVGGQGIKTQQSFEMVKGGYTLDSNKGGGHQTLESVKGVGQGDTGRYAYTDWQSFTQPRLGEKVYLCGQDEEHKHCEDYVCSYNYEGKGSLAGSVGCCSDRQEEEGLEFLDHLEPKFRTLAKTCIKK
B6: Alpha-1,6-mannosylglycoprotein 6-beta-N-acetylglucosaminyltransferase B (protein, UniProt Q3V5L5 1-792)
chain: MITVNPDGKIMVRRCLVTLRPFRLFVLGIGFFTLCFLMTSLGGQFSARRLGDSPFTIRTEVMGGPESRGVLRKMSDLLELMVKRMDALARLENSSELHRAGGDLHFPADRMPPGAGLMERIQAIAQNVSDIAVKVDQILRHSLLLHSKVSEGRRDQCEAPSDPKFPDCSGKVEWMRARWTSDPCYAFFGVDGTECSFLIYLSEVEWFCPPLPWRNQTAAQRAPKPLPKVQAVFRSNLSHLLDLMGSGKESLIFMKKRTKRLTAQWALAAQRLAQKLGATQRDQKQILVHIGFLTEESGDVFSPRVLKGGPLGEMVQWADILTALYVLGHGLRVTVSLKELQSNLGVPPGRGSCPLTMPLPFDLIYTDYHGLQQMKRHMGLSFKKYRCRIRVIDTFGTEPAYNHEEYATLHGYRTNWGYWNLNPKQFMTMFPHTPDNSFMGFVSEELNETEKRLIKGGKASNMAVVYGKEASIWKLQGKEKFLGILNKYMEIHGTVYYESQRPPEVPAFVKNHGLLPQPEFQQLLRKAKLFIGFGFPYEGPAPLEAIANGCIFLQSRFSPPHSSLNHEFFRGKPTSREVFSQHPYAENFIGKPHVWTVDYNNSEEFEAAIKAIMRTQVDPYLPYEYTCEGMLERIHAYIQHQDFCRAPDPALPEAHAPQSPFVLAPNATHLEWARNTSLAPGAWPPAHALRAWLAVPGRACTDTCLDHGLICEPSFFPFLNSQDAFLKLQVPCDSTESEMNHLYPAFAQPGQECYLQKEPLLFSCAGSNTKYRRLCPCRDFRKGQVALCQGCL
B7: MORC family CW-type zinc finger protein 4 (protein, UniProt Q8TE76 1-937)
chain: MLLYRGAPAGPGAPGCGLARPGGGPQAFGIRLSTMSPRYLQSNSSSHTRPFSAIAELLDNAVDPDVSARTVFIDVEEVKNKSCLTFTDDGCGMTPHKLHRMLSFGFTDKVIKKSQCPIGVFGNGFKSGSMRLGKDALVFTKNGGTLTVGLLSQTYLECVQAQAVIVPIVPFNQQNKKMIITEDSLPSLEAILNYSIFNRENDLLAQFDAIPGKKGTRVLIWNIRRNKNGKSELDFDTDQYDILVSDFDTEEKMTGGVTSELPETEYSLRAFCGILYMKPRMKIFLRQKKVTTQMIAKSLANVEYDTYKPTFTNKQVRITFGFSCKNSNQFGIMMYHNNRLIKSFEKVGCQVKPTRGEGVGVIGVIECNFLKPAYNKQDFEYTKEYRLTINALAQKLNAYWKEKTSQDNFETSTVARPIPKVPDQTWVQCDECLKWRKLPGKIDPSMLPARWFCYYNSHPKYRRCSVPEEQELTDEDLCLSKAKKQEQTVEEKKKMPMENENHQVFSNPPKILTVQEMAGLNNKTIGYEGIHSPSVLPSGGEESRSPSLQLKPLDSSVLQFSSKYKWILGEEPVEKRRRLQNEMTTPSLDYSMPAPYRRVEAPVAYPEGENSHDKSSSERSTPPYLFPEYPEASKNTGQNREVSILYPGAKDQRQGSLLPEELEDQMPRLVAEESNRGSTTINKEEVNKGPFVAVVGVAKGVRDSGAPIQLIPFNREELAERRKAVESWNPVPYSVASAAIPAAAIGEKARGYEESEGHNTPKLKNQRELEELKRTTEKLERVLAERNLFQQKVEELEQERNHWQSEFKKVQHELVIYSTQEAEGLYWSKKHMGYRQAEFQILKAELERTKEEKQELKEKLKETETHLEMLQKAQVSYRTPEGDDLERALAKLTRLRIHVSYLLTSVLPHLELREIGYDSEQVDGILYTVLEANHILD

Protein sequences, listed by entry. Tags and fused reporters are not part of them. Lines headed by an entry give the natural chain unless they say otherwise; changes in a name come on top.
UniProt P08254: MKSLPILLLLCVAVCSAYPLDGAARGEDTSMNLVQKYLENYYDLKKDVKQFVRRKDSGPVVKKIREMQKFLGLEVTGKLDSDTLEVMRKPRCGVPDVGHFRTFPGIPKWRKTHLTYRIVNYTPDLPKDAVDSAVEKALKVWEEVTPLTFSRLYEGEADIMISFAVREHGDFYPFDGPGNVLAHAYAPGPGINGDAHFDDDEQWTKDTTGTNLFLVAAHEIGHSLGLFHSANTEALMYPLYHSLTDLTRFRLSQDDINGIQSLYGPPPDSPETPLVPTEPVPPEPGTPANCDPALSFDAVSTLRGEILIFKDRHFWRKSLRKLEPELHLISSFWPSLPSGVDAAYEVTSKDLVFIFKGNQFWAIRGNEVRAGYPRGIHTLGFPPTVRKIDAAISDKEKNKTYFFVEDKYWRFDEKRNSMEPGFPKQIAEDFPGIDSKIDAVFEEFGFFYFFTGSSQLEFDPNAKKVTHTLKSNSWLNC

Target: Matrix metalloproteinase 3 (human (endogenous in OVCAR3CIS)) (UniProt P08254)
Assay: affinity purification with mass spectrometry; extracellular MMP3: supernatants of serum-free OVCAR3CIS cells, untreated or cisplatin-treated, pre-cleared on protein A/G magnetic beads, anti-MMP3 antibody (Abcam) 10 ug/200 ug protein at 4 °C overnight, protein A/G magnetic beads (Pierce MS-compatible Magnetic IP Kit), eluate by LC-MS/MS

| Binder | binding |
| --- | --- |
| B1 | binds |
| B2 | binds |
| B3 | binds |
| B4 | binds |
| B5 | binds |
| B6 | binds |
| B7 | binds |

— PMC12071843
